Reference: article PMC5532651, “Bistratamides M and N, Oxazole-Thiazole Containing Cyclic Hexapeptides Isolated from Lissoclinum bistratum Interaction of Zinc (II) with Bistratamide K” (Marine Drugs, 2017)

Experiment: Zn (II) titration followed by 13C and 1H NMR
Assay type: binding
Conditions: CD3CN

## Bistratamide K [Bistratamide K (3)]
ZnCl2, 2 and 4 equiv., 3 mg peptide in 0.75 mL
  13C NMR changes on Zn (II) addition: downfield carbon chemical shifts at positions C-5 (δC 168.5), C-10 (δC 170.7) and C-13 (δC 174.6)
ZnCl2, 4 equiv.
  1H NMR changes on Zn (II) addition: no changes were observed
